Laboratory results taken from patent publication US12128016B2, “Vanin-1 inhibitor” (EDUCATIONAL FOUNDATION OF OSAKA MEDICAL AND PHARMACEUTICAL …, priority 2021, dated 2024).
Entries after “also recorded” stand apart in the source; their conditions may differ. Some entries share one result that the patent states for a list of compounds.

Molecular target: T1, Vanin-1 (Homo sapiens, UniProt O95497)
T1 construct: For use as human serum, “normal human serum” was purchased from KOHJIN BIO (product number: 12181211); tissue KOHJIN BIO 12181211; host or cells: normal human serum
T1 sequence (O95497 22-491): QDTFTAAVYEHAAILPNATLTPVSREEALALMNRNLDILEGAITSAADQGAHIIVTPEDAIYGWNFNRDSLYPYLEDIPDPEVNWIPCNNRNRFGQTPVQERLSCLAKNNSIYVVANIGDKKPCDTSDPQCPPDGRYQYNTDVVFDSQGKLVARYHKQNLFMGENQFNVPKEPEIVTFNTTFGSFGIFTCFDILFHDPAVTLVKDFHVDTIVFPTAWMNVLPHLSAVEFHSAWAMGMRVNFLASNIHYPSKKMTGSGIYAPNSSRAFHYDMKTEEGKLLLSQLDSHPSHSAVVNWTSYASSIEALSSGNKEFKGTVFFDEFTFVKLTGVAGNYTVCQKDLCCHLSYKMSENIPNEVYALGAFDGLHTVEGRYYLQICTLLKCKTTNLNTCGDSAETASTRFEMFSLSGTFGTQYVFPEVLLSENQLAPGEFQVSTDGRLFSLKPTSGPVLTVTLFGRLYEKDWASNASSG
Assay: In vitro measurement of Vanin-1 inhibitory activity, screening using human serum with Pantothenate-AMC substrate
Type: biochemical
Procedure: The pantotheine ketone derivatives obtained in Examples 1 to 5 and Comparative Examples 1 to 9 were used as a Vanin-1 inhibitor to measure Vanin-1 inhibitory activity in vitro as follows.
A 9 g/package phosphate buffer powder (1/15 molL^−1=66 mM, Wako Pure Chemical) was dissolved in 1 L of distilled water to produce an assay buffer. Pantothenate-AMC serving as a substrate was synthesized according to protocols as described in Analytical Biochemistry 2010; 399: 284-292. For use as human serum, “normal human serum” was purchased from KOHJIN BIO (product number: 12181211).
Vanin-1 inhibitory activity was measured in accordance with the following steps 1 to 8 of: • 1. introducing 79 μL of assay buffer in a 96-well black plate, • 2. adding 10 μL of human serum to the wells containing the assay buffer, • 3. adding 1 μL of each Vanin-1 inhibitor (10^−7 M to 10^−2 M in DMSO) or 1 μL of DMSO to the wells from the step [2.], • 4. adding 10 μL of 1 mM Pantothenate-AMC to the wells from the step [3.], • 5. measuring at Ex=390 nm and Ex=465 nm before incubation, • 6. incubating at 37° C. for 30 minutes, • 7. measuring at Ex=390 nm and Ex=465 nm, • 8. subtracting fluorescence after 0 minute incubation, from fluorescence after 30 minutes incubation, to express Vanin-1 inhibitory activity of each inhibitor in percent with respect to that of DMSO being 100%. (Results)

SMILES | Vanin-1 inhibitory activity in vitro (comparison in words, FIGS. 1 to 4)
CC(C)(CO)[C@@H](O)C(=O)NCCC(=O)Cc1ccc(OC(F)(F)F)cc1 [Example 1, (R)-2,4-dihydroxy-3,3-dimethyl-N-[3-oxo-4-(4-trifluoromethoxyphenyl)butyl]butanamide] | higher Vanin-1 inhibitory activity than that of Comparative Example 1; also recorded: stronger inhibitory activity in vitro than the pantotheine ketone derivatives of Comparative Examples 1 to 9
CC(C)(CO)[C@@H](O)C(=O)NCCC(=O)Cc1ccc(F)cc1 [Example 2] | higher Vanin-1 inhibitory activity than that of Comparative Example 1; also recorded: stronger inhibitory activity in vitro than the pantotheine ketone derivatives of Comparative Examples 1 to 9
CC(C)(CO)[C@@H](O)C(=O)NCCC(=O)Cc1cccc(OC(F)(F)F)c1 [Example 3] | higher Vanin-1 inhibitory activity than that of Comparative Example 1; also recorded: stronger inhibitory activity in vitro than the pantotheine ketone derivatives of Comparative Examples 1 to 9
CC(C)(CO)[C@@H](O)C(=O)NCCC(=O)Cc1cccc(F)c1 [Example 4] | higher Vanin-1 inhibitory activity than that of Comparative Example 1; also recorded: stronger inhibitory activity in vitro than the pantotheine ketone derivatives of Comparative Examples 1 to 9
CC(C)(CO)[C@@H](O)C(=O)NCCC(=O)Cc1ccccc1F [Example 5] | higher Vanin-1 inhibitory activity than that of Comparative Example 1; also recorded: stronger inhibitory activity in vitro than the pantotheine ketone derivatives of Comparative Examples 1 to 9
